{"source": "PubChem BioAssay AID1224826 – NIAID – 2016", "screen": "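Regulators of Tlr4 signalling leading to Tnf-alpha expression in macrophages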 (primary screen)", "cell system": "RAW264.7 G9 macrophages from mouse bearing reporters for p65 (GFP) and the Tnf promoter (mCherry)", "reagent": "siRNA pool against mouse genes, 100 nM", "duration": "16 h of LPS stimulation, after 2 days of siRNA transfection", "conditions": "bacterial lipopolysaccharide (Salmonella minnesota R595), 10 ng/ml", "detection": "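Nuclear mCherry signal of the Tnf promoter reporter measured by imaging after background removal, scaled to each plate median and turned into robust z-scores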", "scale": "Tnf reporter robust z-score: higher = stronger Tnf promoter reporter signal after LPS", "call rule": "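Called active when robust z-score is at most -1.3, matching the median of the Tlr4 knock-down control, or over 3; control wells and wells with under 50 cells never active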", "meaning of the calls": "active = Tnf reporter clearly lowered or raised; inactive = no clear change in Tnf reporter", "note": "The whole screen tested about 17,000 reagents; shown is a random part of them. About 1,110 of them (6.6%) count as active. 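Active means lowered or raised reporter signal; replicate intensities are raw and not normalised per plate.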 Not all columns of the deposit are shown. Reagent sequences are not shown."}
{"target gene": "Vmn1r189", "Tnf reporter robust z-score": 0.71, "fewer than 50 cells in well": "enough cells in well", "activity call": "inactive"}
{"target gene": "Wdr46", "Tnf reporter robust z-score": -0.05, "fewer than 50 cells in well": "enough cells in well", "activity call": "inactive"}
{"target gene": "Nnmt", "Tnf reporter robust z-score": -0.18, "fewer than 50 cells in well": "enough cells in well", "activity call": "inactive"}
{"target gene": "Knstrn", "Tnf reporter robust z-score": 1.35, "fewer than 50 cells in well": "enough cells in well", "activity call": "inactive"}
{"target gene": "Plk4", "Tnf reporter robust z-score": -0.06, "fewer than 50 cells in well": "enough cells in well", "activity call": "inactive"}
{"target gene": "Sema4d", "Tnf reporter robust z-score": 0.11, "fewer than 50 cells in well": "enough cells in well", "activity call": "inactive"}
{"target gene": "Hjv", "Tnf reporter robust z-score": 2.01, "fewer than 50 cells in well": "enough cells in well", "activity call": "inactive"}
{"target gene": "Decr1", "Tnf reporter robust z-score": 0.05, "fewer than 50 cells in well": "enough cells in well", "activity call": "inactive"}
{"target gene": "Slc60a2c", "Tnf reporter robust z-score": 0.8, "fewer than 50 cells in well": "enough cells in well", "activity call": "inactive"}
{"target gene": "Pif1", "Tnf reporter robust z-score": -0.92, "fewer than 50 cells in well": "enough cells in well", "activity call": "inactive"}

Reprinted from above for reference:
{"target gene": "Hjv", "Tnf reporter robust z-score": 2.01, "fewer than 50 cells in well": "enough cells in well", "activity call": "inactive"}
{"target gene": "Decr1", "Tnf reporter robust z-score": 0.05, "fewer than 50 cells in well": "enough cells in well", "activity call": "inactive"}
{"target gene": "Slc60a2c", "Tnf reporter robust z-score": 0.8, "fewer than 50 cells in well": "enough cells in well", "activity call": "inactive"}

The listing continues:
{"target gene": "Igsf3", "fewer than 50 cells in well": "fewer than 50 cells per well; well left out of calls", "activity call": "inactive"}
{"target gene": "Gabpb2", "Tnf reporter robust z-score": -1.42, "fewer than 50 cells in well": "enough cells in well", "activity call": "active"}
{"target gene": "Slitrk6", "Tnf reporter robust z-score": -1.42, "fewer than 50 cells in well": "enough cells in well", "activity call": "active"}
{"target gene": "Prmt7", "Tnf reporter robust z-score": 0.46, "fewer than 50 cells in well": "enough cells in well", "activity call": "inactive"}
{"target gene": "Plch2", "Tnf reporter robust z-score": -0.6, "fewer than 50 cells in well": "enough cells in well", "activity call": "inactive"}
{"target gene": "Lamp5", "Tnf reporter robust z-score": -0.53, "fewer than 50 cells in well": "enough cells in well", "activity call": "inactive"}
{"target gene": "Zfp280b", "Tnf reporter robust z-score": 0.44, "fewer than 50 cells in well": "enough cells in well", "activity call": "inactive"}
{"target gene": "Nefm", "Tnf reporter robust z-score": -1.44, "fewer than 50 cells in well": "enough cells in well", "activity call": "active"}
{"target gene": "Hoxd8", "Tnf reporter robust z-score": -0.21, "fewer than 50 cells in well": "enough cells in well", "activity call": "inactive"}
{"target gene": "Chordc1", "Tnf reporter robust z-score": 0.92, "fewer than 50 cells in well": "enough cells in well", "activity call": "inactive"}
{"target gene": "Sypl1", "Tnf reporter robust z-score": 1.95, "fewer than 50 cells in well": "enough cells in well", "activity call": "inactive"}
